No constants are given. Whether binding was seen depends on the method and setting. Binding seen in cells or lysates may run through a third protein. These calls come from enrichment with a bait or labelling near it, and not all partners need be listed. For some of these results: Where a sequence is shown, tags or fusion partners need not be part of it.

In one experiment the target is T1, Cdx2 (mouse) (UniProt P43241).
T1 sequence: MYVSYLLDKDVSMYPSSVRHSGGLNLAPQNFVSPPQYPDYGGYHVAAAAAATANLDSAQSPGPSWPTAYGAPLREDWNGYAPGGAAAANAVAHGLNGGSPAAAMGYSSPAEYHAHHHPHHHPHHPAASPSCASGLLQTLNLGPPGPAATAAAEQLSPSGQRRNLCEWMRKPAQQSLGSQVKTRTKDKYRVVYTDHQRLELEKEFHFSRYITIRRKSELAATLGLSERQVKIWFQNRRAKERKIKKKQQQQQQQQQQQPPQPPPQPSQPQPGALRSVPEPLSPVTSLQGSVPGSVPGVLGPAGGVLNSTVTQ
As to the kind of experiment: co-IP + affinity purification with mass spectrometry; Cdx2 co-immunoprecipitation from TS cells followed by either western blot or mass spectrometry. On the technique in general: Immunoblotting shows a protein as a band on a membrane.

For experiment [1], the target named is T2, C-terminally 3xFlag-tagged Esrrb (oestrogen-related receptor beta) (mouse) (UniProt Q61539).
T2 sequence: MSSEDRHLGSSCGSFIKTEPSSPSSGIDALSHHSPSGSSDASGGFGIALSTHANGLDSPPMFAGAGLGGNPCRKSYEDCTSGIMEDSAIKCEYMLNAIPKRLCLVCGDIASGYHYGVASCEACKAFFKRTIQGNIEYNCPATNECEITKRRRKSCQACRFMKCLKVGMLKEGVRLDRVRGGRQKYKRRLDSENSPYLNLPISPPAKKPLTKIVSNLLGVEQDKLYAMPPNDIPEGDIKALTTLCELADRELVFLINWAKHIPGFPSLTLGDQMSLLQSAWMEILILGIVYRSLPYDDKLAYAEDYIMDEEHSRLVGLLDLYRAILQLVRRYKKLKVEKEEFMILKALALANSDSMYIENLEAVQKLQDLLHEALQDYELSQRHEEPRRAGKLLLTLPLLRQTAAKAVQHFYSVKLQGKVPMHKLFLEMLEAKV
The experiment can be described thus: affinity purification with mass spectrometry; anti-FLAG M2 agarose IP of Esrrb-3xFlag from TS cell nuclear extract dialysed to buffer D (20 mM Hepes pH 7.6, 20% glycerol, 100 mM KCl, 1.5 mM MgCl2, 0.2 mM EDTA), 3 h at 4 °C with Benzonase, elution with FLAG-tripeptide, LC-MS/MS; two biological replicates against vector control.

B1: Alpha-globin transcription factor CP2 (protein, UniProt Q9ERA0 1-502)
chain: MAWALKLPLADEVIESGLVQDFDASLSGIGQELGAGAYSMSDVLALPIFKQEESSLPPDNENEILPFQYVLCAATSPAVKLHDETLTYLNQGQSYEIRMLDNRKLGELPELNGKLVKSIFRVVFHDRRLQYTEHQQLEGWRWNRPGDRILDIDIPMSVGVIDPRANPTQLNTVEFLWDPSKRTSVFIQVHCISTEFTMRKHGGEKGVPFRVQIDTFKENGNGEYTEHLHSASCQIKVFKPKGADRKQKIDREKMEKRTPHEKEKYQPSYETTILTECSPWPEITYVNNSPSPGFNSSHSSFSLGEGNGSPNHQPEPPPPVTDNLLPTTTPQEAQQWLHRNRFSTFTRLFTNFSGADLLKLTRDDVIQICGPADGIRLFNALKGRMVRPRLTIYVCQESLQLREQQPQPQPQPQKQEDGDSNGTFFVYHAIYLEELTAVELTEKIAQLFSISPHQISQIYKQGPTGIHVVISDEMVQNFQEEACFILDTMEAETSDSYHVILK
As to B1, the binding result (in the experiment with Cdx2 (mouse); in experiment [1]) was “binds” throughout.

B2: Ribosomal biogenesis protein LAS1L (protein, UniProt A2BE28 1-776)
chain: MDRVWRAWDGQSFKENQPESPSARGIVVSWLSRAEWEQVTVYLFCDDHKLQQYALNRITVWRSRLGNELPLAVASTADLVRCKLIDAAGTLGTDELRLLYGMALVRFVNLISERKTKCSNLPLKYLAQEVNIPDWIVELRHNLTHKKMPHINECRRGCYFVLNWLQKTYWSRQLEGSLKETWELDEDQLDAEDPEEEEREIIADDVLEEIPEPQDDDKDEELAVEDDANTKGNEEVASHPEPSSRHKELYEKARELLVSYEEEQFKVLEKHRHLLQAIKVWNNLSPRVQCILEELKSISWENRDAVLDAFLDDGFLIPTFEQLAALQIEYEDGQTEVQKGEVTEPNSHKNIDLNEVLVPKPFSQFWQPLLRGLHSQTFTQALLERMFSELSTVGSTGIRPTYILRWTVELIVANTKTGRNARRFSASQWEARKSWRLFNCSATLDWPQVIESCLGSPCWASPQLLQVVFKAMGQVLPDEEQEKLLRVCSIYTQNGENGLAKAIEGSSSSSTGKAPYTLDTLHEDLQPPGTNCESEESIQQKEQGNLKDVKQEEKKENEEEEKEEEEMEEEEEEEEEEKEEEEEEQEQEEHQEEEQEEEEEEENQKVFQDQMEADVEESDDVEEEEEVDDEEEDEDDDYDDDEEEDRMEVGAFSLAQGSSVFENTRTTSRKREALQGSAWQVSSEDVRWGTFPLGRLPGQTEDPAELMLDNYDTMYLLDQPVIEHRLEPQKSKSSTLSLCCGGSNTNSSSSSSSGNMEGLLWNQGQMHGLKAGLQLF
B2: the binding entry in experiment [1] is on record as “binds”.

B3: Eomes (protein, UniProt O54839 1-707)
chain: MQLGEQLLVSSVNLPGAHFYSLESARGGGGGGGGGGGGGGGSVSLLPGAAPSPQRLDLDKASKKFPGSLPCQAGSAEPAGAGAGAPAAMLSDADAGDTFGSTSAVAKPGPPDGRKGSPCAEEELPSAATAAATARYSMDSLSSERYYLPSPGPQGSELAAPCSLFQYPAAAGAAHGPVYPASNGARYPYGSMLPPGGFPAAVCPPARAQFGPAAGSGSGAGSSGGGAGGPGAYPYGQGSPLYGPYAGTSAAGSCGGLGGLGVPGSGFRAHVYLCNRPLWLKFHRHQTEMIITKQGRRMFPFLSFNINGLNPTAHYNVFVEVVLADPNHWRFQGGKWVTCGKADNNMQGNKMYVHPESPNTGSHWMRQEISFGKLKLTNNKGANNNNTQMIVLQSLHKYQPRLHIVEVTEDGVEDLNEPSKTQTFTFSETQFIAVTAYQNTDITQLKIDHNPFAKGFRDNYDSMYTASENDRLTPSPTDSPRSHQIVPGGRYGVQNFFPEPFVNTLPQARYYNGERTVPQTNGLLSPQQSEEVANPPQRWLVTPVQQPVTNKLDIGSYESEYTSSTLLPYGIKSLPLQTSHALGYYPDPTFPAMAGWGGRGAYQRKMAAGLPWTSRMSPPVFPEDQLAKEKVKEEISSSWIETPPSIKSLDSSDSGVYNSACKRKRLSPSTPSNGNSPPIKCEDINTEEYSKDTSKGMGAYYAFYTSP
As to B3, in the experiment with Cdx2 (mouse), the binding entry is “binds”.
